Source: PubChem BioAssay AID1259254 (NCATS, 2017)
This is a random part of about 59,000 deposited reagents. About 1,550 of all reagents (2.6%) count as active. 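G2 share is only a proxy for re-replication; each gene was hit by three separate siRNAs, and active genes were retested.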 Reagents against one gene are numbered here. Further read-outs or replicates are left out here. The record does not give: the amount of reagent.

Test: 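Genome-wide screen for genes that prevent DNA re-replication in cancer cells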 (primary screen)
System: human HCT116 colorectal cancer cells
Knock-down reagent: single siRNA against human genes
Timing: 3 days
Read-out: 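Imaged Hoechst DNA stain sorts each cell into a cycle phase by DNA amount; per plate, G2 fraction set to 0% for non-targeting and 100% for GMNN siRNA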
Scale: G2 robust z-score and G2 cells, % of GMNN control: higher = more G2 cells, more excess DNA replication
Active means: 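An siRNA counts as active if its G2 robust z-score lies at least 5 MADs above the screen median; here such calls match roughly 38% of GMNN control or more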

| gene | reagent no. | G2 robust z-score | G2 cells, % of GMNN control | activity call |
| --- | --- | --- | --- | --- |
| NMUR2 (neuromedin U receptor 2) | 1 | 1.04 | 10.3 | inactive |
| NMUR2 (neuromedin U receptor 2) | 2 | -1.31 | -6.27 | inactive |
| NMUR2 (neuromedin U receptor 2) | 3 | 0.332 | 5.31 | inactive |
| SYPL1 (synaptophysin like 1) | 1 | 1.99 | 17 | inactive |
| SYPL1 (synaptophysin like 1) | 2 | -0.997 | -4.05 | inactive |
| SYPL1 (synaptophysin like 1) | 3 | 0.304 | 5.11 | inactive |
| CDKAL1 (CDKAL1 threonylcarbamoyladenosine tRNA methylthiotransferase) | 1 | -0.395 | 0.185 | inactive |
| CDKAL1 (CDKAL1 threonylcarbamoyladenosine tRNA methylthiotransferase) | 2 | -0.332 | 0.633 | inactive |
| CDKAL1 (CDKAL1 threonylcarbamoyladenosine tRNA methylthiotransferase) | 3 | -1.33 | -6.37 | inactive |
| UBQLN1 (ubiquilin 1) | 1 | 1.44 | 13.1 | inactive |
| UBQLN1 (ubiquilin 1) | 2 | -0.875 | -3.19 | inactive |
| UBQLN1 (ubiquilin 1) | 3 | 2.28 | 19 | inactive |
| ORC5 (origin recognition complex subunit 5) | 1 | -0.359 | 0.441 | inactive |
| ORC5 (origin recognition complex subunit 5) | 2 | 0.0416 | 3.26 | inactive |
| ORC5 (origin recognition complex subunit 5) | 3 | -0.136 | 2.01 | inactive |
| PPP1R36 (protein phosphatase 1 regulatory subunit 36) | 1 | -0.159 | 1.85 | inactive |
| PPP1R36 (protein phosphatase 1 regulatory subunit 36) | 2 | 1.49 | 13.4 | inactive |
| PPP1R36 (protein phosphatase 1 regulatory subunit 36) | 3 | -1.05 | -4.42 | inactive |
| EIF4G3 (eukaryotic translation initiation factor 4 gamma 3) | 1 | -0.136 | 2.01 | inactive |
| EIF4G3 (eukaryotic translation initiation factor 4 gamma 3) | 2 | 0.881 | 9.17 | inactive |
| EIF4G3 (eukaryotic translation initiation factor 4 gamma 3) | 3 | -0.437 | -0.105 | inactive |
| PIK3C3 (phosphatidylinositol 3-kinase catalytic subunit type 3) | 1 | -0.371 | 0.357 | inactive |
| PIK3C3 (phosphatidylinositol 3-kinase catalytic subunit type 3) | 2 | 1.73 | 15.1 | inactive |
| PIK3C3 (phosphatidylinositol 3-kinase catalytic subunit type 3) | 3 | -0.05 | 2.62 | inactive |
| VILL (villin like) | 1 | -0.332 | 0.632 | inactive |
| VILL (villin like) | 2 | -0.413 | 0.0592 | inactive |
| VILL (villin like) | 3 | -0.93 | -3.58 | inactive |
| REPS1 (RALBP1 associated Eps domain containing 1) | 1 | 0.281 | 4.94 | inactive |
| REPS1 (RALBP1 associated Eps domain containing 1) | 2 | 0.248 | 4.72 | inactive |
| REPS1 (RALBP1 associated Eps domain containing 1) | 3 | 0.352 | 5.44 | inactive |
| ADNP (activity dependent neuroprotector homeobox) | 1 | 1.2 | 11.4 | inactive |
| ADNP (activity dependent neuroprotector homeobox) | 2 | 0.626 | 7.37 | inactive |
| ADNP (activity dependent neuroprotector homeobox) | 3 | -1.16 | -5.16 | inactive |
| OR10Z1 (olfactory receptor family 10 subfamily Z member 1) | 1 | 2.91 | 23.4 | inactive |
| OR10Z1 (olfactory receptor family 10 subfamily Z member 1) | 2 | 0.832 | 8.82 | inactive |
| OR10Z1 (olfactory receptor family 10 subfamily Z member 1) | 3 | -0.672 | -1.76 | inactive |
| RBM22P1 (RNA binding motif protein 22 pseudogene 1) | 1 | -0.5 | -0.552 | inactive |
| RBM22P1 (RNA binding motif protein 22 pseudogene 1) | 2 | -0.0446 | 2.65 | inactive |
| RBM22P1 (RNA binding motif protein 22 pseudogene 1) | 3 | 1.86 | 16 | inactive |
| MFNG (MFNG O-fucosylpeptide 3-beta-N-acetylglucosaminyltransferase) | 1 | 5.29 | 40.2 | active |
| MFNG (MFNG O-fucosylpeptide 3-beta-N-acetylglucosaminyltransferase) | 2 | -1.29 | -6.09 | inactive |
| MFNG (MFNG O-fucosylpeptide 3-beta-N-acetylglucosaminyltransferase) | 3 | -1.39 | -6.81 | inactive |
| FRS3 (fibroblast growth factor receptor substrate 3) | 1 | -1.58 | -8.12 | inactive |
| FRS3 (fibroblast growth factor receptor substrate 3) | 2 | 0.654 | 7.57 | inactive |
| FRS3 (fibroblast growth factor receptor substrate 3) | 3 | -0.565 | -1.01 | inactive |
| RASSF6 (Ras association domain family member 6) | 1 | 1.53 | 13.7 | inactive |
| RASSF6 (Ras association domain family member 6) | 2 | -0.168 | 1.78 | inactive |
| RASSF6 (Ras association domain family member 6) | 3 | 0.218 | 4.5 | inactive |
| LPXN (leupaxin) | 1 | 3.47 | 27.4 | inactive |
| LPXN (leupaxin) | 2 | -0.336 | 0.604 | inactive |
| LPXN (leupaxin) | 3 | 1.66 | 14.6 | inactive |
| SHB (SH2 domain containing adaptor protein B) | 1 | -0.446 | -0.169 | inactive |
| SHB (SH2 domain containing adaptor protein B) | 2 | -0.0695 | 2.48 | inactive |
| SHB (SH2 domain containing adaptor protein B) | 3 | -0.326 | 0.673 | inactive |
| GFRA4 (GDNF family receptor alpha 4) | 1 | 0.0844 | 3.56 | inactive |
| GFRA4 (GDNF family receptor alpha 4) | 2 | 0.656 | 7.58 | inactive |
| GFRA4 (GDNF family receptor alpha 4) | 3 | 3.03 | 24.3 | inactive |
| DONSON (DNA replication fork stabilization factor DONSON) | 1 | 2.18 | 18.3 | inactive |
| DONSON (DNA replication fork stabilization factor DONSON) | 2 | 8.09 | 59.9 | active |
| DONSON (DNA replication fork stabilization factor DONSON) | 3 | 4.35 | 33.6 | inactive |
| SLC35A3 | 1 | -0.546 | -0.873 | inactive |
| SLC35A3 | 2 | 1.76 | 15.4 | inactive |
| SLC35A3 | 3 | -0.589 | -1.18 | inactive |
| POFUT1 (protein O-fucosyltransferase 1) | 1 | 0.638 | 7.46 | inactive |
| POFUT1 (protein O-fucosyltransferase 1) | 2 | -0.0963 | 2.29 | inactive |
| POFUT1 (protein O-fucosyltransferase 1) | 3 | 3.03 | 24.3 | inactive |
| EFEMP2 (EGF-like fibulin extracellular matrix protein 2) | 1 | 3.78 | 29.6 | inactive |
| EFEMP2 (EGF-like fibulin extracellular matrix protein 2) | 2 | 2.33 | 19.3 | inactive |
| EFEMP2 (EGF-like fibulin extracellular matrix protein 2) | 3 | -1.29 | -6.09 | inactive |

Reformatted: entries from further up
{"gene":"OR10Z1 (olfactory receptor family 10 subfamily Z member 1)","reagent no.":3,"G2 robust z-score":-0.672,"G2 cells, % of GMNN control":-1.76,"activity call":"inactive"}
{"gene":"RBM22P1 (RNA binding motif protein 22 pseudogene 1)","reagent no.":1,"G2 robust z-score":-0.5,"G2 cells, % of GMNN control":-0.552,"activity call":"inactive"}
{"gene":"RBM22P1 (RNA binding motif protein 22 pseudogene 1)","reagent no.":2,"G2 robust z-score":-0.0446,"G2 cells, % of GMNN control":2.65,"activity call":"inactive"}
{"gene":"RBM22P1 (RNA binding motif protein 22 pseudogene 1)","reagent no.":3,"G2 robust z-score":1.86,"G2 cells, % of GMNN control":16,"activity call":"inactive"}
{"gene":"MFNG (MFNG O-fucosylpeptide 3-beta-N-acetylglucosaminyltransferase)","reagent no.":1,"G2 robust z-score":5.29,"G2 cells, % of GMNN control":40.2,"activity call":"active"}
{"gene":"MFNG (MFNG O-fucosylpeptide 3-beta-N-acetylglucosaminyltransferase)","reagent no.":2,"G2 robust z-score":-1.29,"G2 cells, % of GMNN control":-6.09,"activity call":"inactive"}
{"gene":"MFNG (MFNG O-fucosylpeptide 3-beta-N-acetylglucosaminyltransferase)","reagent no.":3,"G2 robust z-score":-1.39,"G2 cells, % of GMNN control":-6.81,"activity call":"inactive"}
